In US5495000A, “Anticoagulant peptides” (Merrell Pharmaceuticals Inc., priority 1995, dated 1996):
Part of at least one peptide drawing is inferred or uncertain, most often the ends. Where no end group is shown, it is not given here.

System: Fibrin-Clot
Assay: Fibrin-Clot Inhibition
Type: biochemical

| Substance | IC50 |
| --- | --- |
| DFEEFSLDDIEQ-OH [Example 2, Asp-Phe-Glu-Glu-Phe-Ser-Leu-Asp-Asp-Ile-Glu-Gln-OH] | 9.3 µM |
| FEEFSLDDIEQ-OH [Example 3, Phe-Glu-Glu-Phe-Ser-Leu-Asp-Asp-Ile-Glu-Gln-OH] | 2.3 µM |
| RGDFEEFSLDDIEQ-OH [Example 8, Arg-Gly-Asp-Phe-Glu-Glu-Phe-Ser-Leu-Asp-Asp-Ile-Glu-Gln-OH] | 5.2 µM |
| SDFEEFSLDDIEQ-OH [Example 1, Ser-Asp-Phe-Glu-Glu-Phe-Ser-Leu-Asp-Asp-Ile-Glu-Gln-OH] | 4.2 µM |
